Data as given in paper PMC10396963, “Fibril formation and ordering of disordered FUS LC driven by hydrophobic interactions” (Nature Chemistry, 2023).
No constants are given. Whether binding was seen depends on the method and setting.

Target: FUS low-complexity domain (FUS LC, 1–163 amino acids) (human) (UniProt P35637)
Experiment: Brewster angle microscopy; 1.5 uM FUS LC in 20 mM CAPS pH 11, air/buffer interface, up to 6 h after addition; both purified

B1: FUS low-complexity domain (FUS LC, 1–163 amino acids) (domain or fragment, human, UniProt P35637 1-163, looked up)
chain: MASNDYTQQATQSYGAYPTQPGQGYSQQSSQPYGQQSYSGYSQSTDTSGYGQSSYSSYGQSQNTGYGTQSTPQGYGSTGGYGSSQSSQSSYGQQSSYPGYGQQPAPSSTSGSYGSSSQSSSYGQPQSGSYSQQPSYGGQQQSYGQQQSYNPPQGYGQQNQYNS
notes: Human FUS (fused in sarcoma), N-terminal QGSY-rich low-complexity domain, amino-acid residues 1-163; For FRAP 5% of the protein carried Cy3 (NHS ester); the AFM and BAM samples were unlabelled; also called fused in sarcoma low-complexity domain; wild-type FUS LC; source: E. coli, purified (solubilised in 8 M urea, Ni-NTA, cleaved with tobacco etch virus protease, exchanged to CAPS pH 11)
binding: no binding (condition: pH 11 (20 mM CAPS))
